Measured values reported in patent CN114874330A.
No constants are given. Whether binding was seen depends on the method and setting. Some entries that bind do so weakly or less than the wild type.

Key:
CT103A scFv [1] = experiment: competition ELISA, antibody pre-incubated with biotin-CT103A scFv; competitor: coated BCMA
[2] = target: BCMA-CAR (CAR with the CT103A scFv) on cells; experiment: flow cytometry on BCMA-CAR-Jurkat cells
CT103A scFv [3] = experiment: ELISA, purified recombinant antibody on coated CT103A scFv at 1 ug/ml
CT103A scFv [4] = experiment: ELISA, LEM supernatant on coated CT103A scFv at 1 ug/ml

Measured: binding

B1: 6G8 (antibody, V domains shown)
VH: QSLEESGGRLVKPDETLTLTCTVSGFTISSYGMSWVRQAPGNGLEWIGAIDSSGSAHYARWAKSRSTITRNTNENTVTLKMTSLTAADTATYFCARWDVDYWSYFNIWGPGTLVTVSS
VL: DVVMTQTPASVSDPVGGTVTIKCQASENIYNGLAWYQQKPGQPPKLLIYGTSTLASGVPSRFSGSGSGTQFTLTISDLECDDAATYYCQCTYYEGGYFFGFGGGTEVVVKG
binds: all assays above
